These are yes or no findings as the source states them, for the method shown. Some binding calls cover weakened binding; strength is not graded here.
Experiments:
[1] = target: human CD79B antigen (coated in the ELISA of the anti-human CD79B mouse antibodies) (human) (UniProt P40259); assay: ELISA, purified mouse antibody on coated antigen
[2] = target: human CD79B antigen (coated in the ELISA of the anti-human CD79B mouse antibodies) (human) (UniProt P40259); assay: ELISA on coated human CD79B antigen
[3] = target: fusion protein of human CD79B extracellular domain (ECD) and His tag (human) (UniProt P40259); assay: ELISA, FACS, SPR and other assays

Amino acid sequences for entries named in this document (tags omitted). Residues count along the entry.
UniProt P40259, residues 29-159: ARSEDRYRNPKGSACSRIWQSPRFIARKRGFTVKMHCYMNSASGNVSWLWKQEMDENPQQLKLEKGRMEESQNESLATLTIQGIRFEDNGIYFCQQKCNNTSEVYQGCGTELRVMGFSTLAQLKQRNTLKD

Row | Binder | binding [1] | binding [2] | binding [3]
1 | mAb015 (antibody, V domains shown, Mouse monoclonal antibody from hybridoma; also called 83B2G2) VH: QVQLQQSGAELARPGASVKLSCKASGSSFTSYGINWVKQRTGQGLEWIGEIFPRSGNTYYNEKFEGKATLTADKSSSTAYMELRSLTSEDSAVYFCAKGDLGDFDYWGQGTTLTVSS VL: DFLMTQTPLSLPVRLGDQASISCRSSQSIVHSDGNTYFEWYLQKPGQSPKLLIYKVSNRFSGVPDRFSGSGSGTDFTLKISRVEAEDLGVYYCFQGSHVPWTFGGGTKLEIK | binds | binds | 
2 | mAb017 (antibody, V domains shown, Mouse monoclonal antibody from hybridoma; also called 86F11F6) VH: QVQLQQSGAELARPGASVKLSCKASGYTFTTYGINWVKQRTGQGLEWIGEIYPRSGNIYYNEKFKGKATLTADKSSSTAYMELRSLTSEDSAVYFCARGSDYDGDFAYWGQGTLVTVSA VL: DVLMTQTPLSLPVSLGDQASISCRSSQSIVHHDGNTYLEWYLQKPGQSPKLLIYKVSNRFSGVPDRFSGSGSGTDFTLKISRVEAEDLGVYYCFQGSHVPWTFGGGTQLEIK | binds | binds | 
3 | hAb017-10 (antibody, human IgG1, kappa, V domains shown, Humanized antibody; also called hAb017-10 humanized antibody) VH: EVQLVQSGAEVKKPGASVKVSCKASGYTFTTYGINWVKQAPGQGLEWIGEIYPRSGNIYYNEKFKGKATLTADKSTSTAYMELRSLRSDDTAVYYCARGSDYDGDFAYWGQGTLVTVSS VL: DVVMTQTPLSLPVTPGEPASISCRSSQSIVHHDGNTYLEWYLQKPGQSPQLLIYKVSNRFSGVPDRFSGSGSGTDFTLKISRVEAEDVGVYYCFQGSHVPWTFGGGTKVEIKR |  |  | binds

— patent publication US20260248946A1 (TUOJIE BIOTECH SHANGHAI, published 2026)
